The values that follow come from publication PMC9325753, “Chilling-induced phosphorylation of IPA1 by OsSAPK6 activates chilling tolerance responses in rice”.

For the experiment, the target named is T1, OsSAPK6-CFP^N (rice (Oryza sativa L. subsp. japonica)) (UniProt Q6ZI44).
T1 sequence: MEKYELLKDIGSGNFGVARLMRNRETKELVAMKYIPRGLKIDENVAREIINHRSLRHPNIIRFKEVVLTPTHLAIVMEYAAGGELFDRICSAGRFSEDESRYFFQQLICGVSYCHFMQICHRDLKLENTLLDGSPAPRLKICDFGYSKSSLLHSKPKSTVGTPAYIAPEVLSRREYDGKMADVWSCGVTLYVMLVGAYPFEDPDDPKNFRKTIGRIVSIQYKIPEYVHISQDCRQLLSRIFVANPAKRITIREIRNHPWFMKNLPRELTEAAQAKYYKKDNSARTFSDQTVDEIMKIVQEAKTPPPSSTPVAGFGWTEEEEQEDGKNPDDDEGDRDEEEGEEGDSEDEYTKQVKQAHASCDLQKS
Briefly: split reporter; BiFC in rice leaf protoplasts; CFP^N and CFP^C fusions (puc-SCYNE, puc-SCYCE) co-expressed from 35S promoter, incubated in the dark overnight, confocal microscopy.

No constants are given. Whether binding was seen depends on the method and setting. Binding seen in cells or lysates may run through a third protein. Binding calls can cover weak binding; strength is not graded here. Where a sequence is shown, tags or fusion partners need not be part of it.

As to OsSPL8-CFP^C (rice), the binding entry is on record as “binds”. For OsSPL2-CFP^C (rice) the value was “binds”.

As for OsSPL7-CFP^C (rice), the binding entry is given as “binds”. Consider OsSPL6-CFP^C (rice), for which the binding result is “no binding”. On to OsSPL3-CFP^C (rice), for which the binding entry was “no binding”.
